Earlier results, collected in US20090030055A1, “PKC activation as a means for enhancing s[sequence] secretion and improving cognition using bryostatin type compounds” (priority 2002, published 2009).

System: sAPP secretion, AD fibroblasts
Details: both control and AD fibroblasts; cited from earlier work

CN[C@@H]1C[C@H]2O[C@@](C)([C@@H]1OC)n1c3ccccc3c3c4c(c5c6ccccc6n2c5c31)C(=O)NC4 [staurosporin]
effect of PKC inhibitor on benzolactam-induced sAPP secretion: eliminated the effects of benzolactam
